Laboratory results taken from patent US20250084163A1.
No constants are given. Whether binding was seen depends on the method and setting. Some results given as binding are weak or reduced against the parent protein; the word gives no strength.

Sequences of proteins named here, by UniProt entry; tags and fusion partners are left off. Residues count along the entry.
UniProt Q9Z139, residues 30-403: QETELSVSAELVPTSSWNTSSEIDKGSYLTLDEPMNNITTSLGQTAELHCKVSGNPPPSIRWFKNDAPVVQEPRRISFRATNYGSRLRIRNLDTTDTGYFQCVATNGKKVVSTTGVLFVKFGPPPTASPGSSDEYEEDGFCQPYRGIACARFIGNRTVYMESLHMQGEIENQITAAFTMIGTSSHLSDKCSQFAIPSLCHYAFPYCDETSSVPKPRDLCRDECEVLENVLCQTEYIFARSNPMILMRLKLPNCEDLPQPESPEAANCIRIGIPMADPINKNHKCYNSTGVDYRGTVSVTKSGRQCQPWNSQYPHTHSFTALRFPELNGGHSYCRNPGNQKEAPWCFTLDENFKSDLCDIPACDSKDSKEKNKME

Legend:
[1] = target: Recombinant mouse his-tag ROR1 (mouse) (UniProt Q9Z139); test: ELISA, antibody coated at 5 ug/mL, his-tagged antigen at 2 ug/ml, anti-his HRP
[2] = target: recombinant mouse ROR1-mouse IgG2-Fc fusion protein (mouse) (UniProt Q9Z139); test: ELISA, mouse ROR1-mouse IgG2-Fc coated at 2 ug/mL, antibody titrated, anti-human IgG-Fc HRP

Row | Binder | binding [1] | binding [2]
1 | RO6D8wt (antibody, V domains shown) VH: QVQLVQSGAEVKKPGASVKVSCKASGYTFTNYYMHWVRQAPGQGLEWMGIINPSGGSTSYAQKFQGRVTMTRDTSTSTVYMELSSLRSEDTAVYYCARDSSSWYSGWYFDLWGQGTTVTVSS VL: AIQMTQSPSSLSASVGDRVTITCRASQDVRAHLAWYQQKPGKAPKLLIYAASSLQSGVPSRFSGSGSGTDFTLTISSLQPEDFATYYCQQFNSYPITFGQGTRLEIK | binds | 
2 | RO6D8-jlv1011 (antibody, V domains shown) VH: QVQLVQSGAEVKKPGASVKVSCKASGYTFTSKYYHWVRQAPGQGLEWMGIINPTSGSTSYAQKFQGRVTMTRDTSTSTVYMELSSLRSEDTAVYYCARDSSRYSGWYFDLWGQGTTVTVSS VL: AIQLTQSPSSLSASVGDRVTITCRASQGVSTEIAWYQQKPGKAPKLLIYAASSLQSGVPSRFSGSGSGTDFTLTISSLQPEDFATYYCQQYYGYPIAFGQGTRLEIK | binds | binds
